Measurements published in article PMC5833715.

By UniProt entry, the sequences of proteins in these tests, tags left out. Where a name states a change or a piece, a line headed by the entry shows the natural chain unless it says otherwise.
UniProt P35613: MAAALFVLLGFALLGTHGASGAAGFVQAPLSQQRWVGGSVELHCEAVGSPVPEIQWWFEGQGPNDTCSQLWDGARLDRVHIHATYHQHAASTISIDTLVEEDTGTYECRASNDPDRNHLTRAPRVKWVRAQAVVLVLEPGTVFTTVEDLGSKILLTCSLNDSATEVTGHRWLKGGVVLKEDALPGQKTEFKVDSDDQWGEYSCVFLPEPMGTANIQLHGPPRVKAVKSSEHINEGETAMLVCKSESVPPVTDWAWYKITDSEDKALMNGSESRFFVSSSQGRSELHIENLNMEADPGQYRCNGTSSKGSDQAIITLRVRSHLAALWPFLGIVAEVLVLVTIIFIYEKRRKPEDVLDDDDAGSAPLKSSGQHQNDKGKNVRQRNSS
UniProt Q9Y4K3: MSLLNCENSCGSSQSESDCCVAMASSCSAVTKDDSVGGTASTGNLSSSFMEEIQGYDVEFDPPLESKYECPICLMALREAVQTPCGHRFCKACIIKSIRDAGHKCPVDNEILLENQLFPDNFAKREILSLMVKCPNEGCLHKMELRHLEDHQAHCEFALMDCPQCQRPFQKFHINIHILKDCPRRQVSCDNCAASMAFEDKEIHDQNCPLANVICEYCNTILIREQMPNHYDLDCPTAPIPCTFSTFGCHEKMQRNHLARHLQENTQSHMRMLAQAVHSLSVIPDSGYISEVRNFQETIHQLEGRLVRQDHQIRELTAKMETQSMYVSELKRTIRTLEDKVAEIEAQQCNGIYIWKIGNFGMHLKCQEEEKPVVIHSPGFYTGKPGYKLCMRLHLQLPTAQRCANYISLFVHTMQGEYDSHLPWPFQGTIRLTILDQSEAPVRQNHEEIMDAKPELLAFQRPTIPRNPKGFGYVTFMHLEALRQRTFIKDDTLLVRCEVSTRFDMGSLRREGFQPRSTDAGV

Target: CD147/Basigin (human (endogenous in HaCaT and A431)) (UniProt P35613)
Assay: co-IP; endogenous immunoprecipitation with a CD147 antibody (control IgG) from HaCaT and A431 cell extracts; NP40 buffer, overnight at 4 °C, protein A/G beads; western blotting

Substance | binding
Tumor necrosis factor receptor-associated factor 6 (TRAF6) (from UniProt Q9Y4K3 1-522) | binds
EGFR (epidermal growth factor receptor) (from UniProt P00533 25-1210) | binds

No constants are given. Whether binding was seen depends on the method and setting. Binding seen in cells or lysates may run through a third protein. Binding can be weak; no strength is given.
